Experimental data as given in the supplement of paper PMC10735217.
Structures can show the parent of a compound that is named as a salt. The list shows a part of the results. Single values are uncertain here, since repeats match poorly.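 Human kidney-derived cells stably carry a construct in which eight TEAD-binding elements drive luciferase, measured by luminescence in a drug-repurposing library screen. A hit is any compound whose signal exceeds the plate mean by more than five robust Z scores.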

Tested on: HEK293A TEAD-LUC reporter
Assay: TEAD-luciferase reporter activity (YAP activation), robust Z score vs plate; higher = stronger YAP/TEAD activation
Conditions: 24 h

Structure (SMILES) | TEAD-luciferase reporter activity (compound concentration: 200 nM) | TEAD-luciferase reporter activity (compound concentration: 2 uM) | TEAD-luciferase reporter activity (compound concentration: 10 uM)
NCC(=O)N1CCC[C@H]1C(=O)N[C@@H](CCC(=O)O)C(=O)O | inactive: -0.651 | inactive: -1.41 | inactive: -1.04
CCC1=C[C@@H]2CN(C1)Cc1c([nH]c3ccccc13)[C@@](C(=O)OC)(c1cc3c(cc1OC)N(C)[C@H]1[C@@](O)(C(=O)OC)[C@H](OC(C)=O)[C@]4(CC)C=CCN5CC[C@]31[C@@H]54)C2 [vinorelbine] | inactive: -2.38 | inactive: 4.97 | inactive: 1.22
Cn1nc(N)nc1NCCCOc1cccc2c1CCC2N1CCCCC1 (stereo not drawn) | inactive: -1.02 | inactive: -0.311 | inactive: 0.593
C[C@H](CO)Nc1nc(Nc2ccc(S(N)(=O)=O)cc2)ncc1Br |  | inactive: -0.356 | 
O=C(Nc1ccncc1)Nc1ccc(-c2nc(N3CCOCC3)nc(N3C4CCC3COC4)n2)cc1 | inactive: 0.13 | inactive: -1.33 | inactive: -1.11
CCN(CC)C(=S)[S-] [disulfiram, Ora Bio-2] | inactive: -1.13 | inactive: -1.95 | inactive: -2.36
CC(=O)N[C@H](C(=O)N[C@H](Cc1cn(C=O)c2ccccc12)C(=O)N[C@@H](Cc1ccccc1)C(=O)N(C)Cc1ccccc1)[C@@H](C)O | inactive: -0.405 | inactive: -0.316 | inactive: -0.166
CC1CC2C3CCC4=CC(=O)C=C[C@]4(C)C3(F)C(O)C[C@]2(C)C1(O)C(=O)COC(=O)c1cccc(S(=O)(=O)[O-])c1 (stereo partly drawn) | inactive: 1.85 | inactive: 3.53 | active: 5.94
N#Cc1ccc(Cn2cncc2CN2CCN(c3cccc(Cl)c3)C(=O)C2)cc1Oc1ccccc1 [Pharmaprojects No. 6518] | inactive: -1.51 | inactive: -1.64 | inactive: -1.9
C[C@H](C(=O)N(C)O)c1ccc2cc(OCc3ccc4ccccc4n3)ccc2c1 | inactive: -0.722 | inactive: -0.971 | inactive: -0.601
COC(=O)c1cc(O)cc(OC)c1C(=O)c1c(O)cc(C)cc1O | inactive: 1.09 | inactive: -0.666 | inactive: 0.32
CC(C)(COC(=O)Nc1ccccc1)COC(=O)Nc1ccccc1 | inactive: -1.26 | inactive: 0.624 | inactive: 2.61
C[C@@H]1C[C@H]2[C@@H]3C[C@H](F)C4=CC(=O)C=C[C@]4(C)[C@@]3(F)[C@@H](O)C[C@]2(C)[C@@]1(O)C(=O)SCCl | inactive: -1.05 | inactive: 0.369 | inactive: 0.944
Cc1ccc(S(=O)(=O)Oc2ccc(O)c(S(=O)(=O)O)c2)cc1 [sultosilic acid piperazine] | inactive: -0.15 | inactive: -0.0785 | inactive: -0.337
O=C(NC1CCN(Cc2cccc(-c3ccc(F)c(F)c3)c2)CC1)c1ccccc1 | inactive: 3.14 |  | active: 6.77
CCCCN1C[C@H](O)[C@@H](O)[C@@H](O)[C@H]1CO [Lucerastat] | inactive: -0.33 | inactive: 0.0191 | inactive: -0.573
Cc1ccc2occ(-c3nnn[nH]3)c(=O)c2c1 | inactive: 0.0452 | inactive: 4.46 | inactive: 1.08
CCCCCC(O)CC(=O)CCc1ccc(O)c(OC)c1 (stereo not drawn) [[6]-gingerol] |  | inactive: 1.5 | 
CCCCCC(O)CC(=O)CCc1ccc(O)c(OC)c1 (stereo not drawn) [6-Gingerol] | inactive: 0.521 | inactive: 3.79 | inactive: -0.117

Structure (SMILES) | TEAD-luciferase reporter activity (compound concentration: 200 nM) | TEAD-luciferase reporter activity (compound concentration: 2 uM) | TEAD-luciferase reporter activity (compound concentration: 10 uM)
CC(=O)NCC1CN(c2ccc(C(C)=O)cc2)C(=O)O1 (stereo not drawn) | inactive: 2.31 | inactive: 0.177 | inactive: -0.893
CN(C)CC1CCn2cc(c3ccccc32)C2=C(C(=O)NC2=O)c2cn(c3ccccc23)CCO1 (stereo not drawn) [Ruboxistaurin hydrochloride] | inactive: -0.359 | inactive: 1.2 | inactive: 1.15
CCCCCCCCCCCCCCOc1ccc(C(C)=O)o1 | inactive: -1.13 | inactive: 0.943 | inactive: 1.01
C[C@H](Nc1cc(-c2cnn(C)c2)cc(Nc2cnccn2)n1)c1ccc(F)cc1 | inactive: -2.69 |  | inactive: -1.39
C[C@H](N[C@@H](CCc1ccccc1)C(=O)O)C(=O)N1C(C(=O)O)CC2CCCC[C@H]21 (stereo partly drawn) [trandolaprilat] | inactive: 0.051 | inactive: -0.685 | inactive: 0.539
COc1cc(C(=O)NC2CCN(C)CC2)c(F)cc1Nc1ncc2c(n1)N(C1CCCC1)CC(F)(F)C(=O)N2C | inactive: -2.45 | inactive: -0.156 | inactive: 1.14
Nc1ncc2ncn(CC(CO)CO)c2n1 [Detiviciclovir] | inactive: -0.687 |  | inactive: -0.575
Cc1ccccc1OCC(O)CNCCn1cc(C)c(=O)[nH]c1=O (stereo not drawn) [primidolol] | inactive: -0.515 | inactive: -0.839 | inactive: 0.217
COC(=O)C1=C(C)NC(C)=C(C(=O)OCCc2ccc(OCC(O)CO)cc2)C1c1cccc([N+](=O)[O-])c1 (stereo not drawn) | inactive: -0.774 | inactive: 0.482 | inactive: 3.17
CC(C(=O)O)c1ccc2c(c1)Cc1ccccc1-2 (stereo not drawn) [cicloprofen] | inactive: -0.841 | inactive: -0.0597 | inactive: -0.225
CC1CC2C3CCC4=CC(=O)C=CC4(C)C3(F)C(O)CC2(C)C1(O)C(=O)CCl (stereo not drawn) [clobetasol] | inactive: -1.11 | inactive: -0.0877 | inactive: 0.451
O=C(O)COc1ccc(CCNS(=O)(=O)c2ccccc2)cc1 [Sulotroban] | inactive: -1.14 | inactive: -1.78 | inactive: 2.9
OC(CC1c2ccccc2-c2cncn21)C1CCCCC1 (stereo not drawn) | inactive: -1.03 | inactive: -1.76 | inactive: 0.204
Fc1ccc(-c2nc3n(c2-c2ccncc2)CCS3)cc1 | inactive: -1.36 | inactive: -0.477 | inactive: -0.221
CC(C)(C)c1cc(-c2csc(CN)n2)cc(C(C)(C)C)c1O | inactive: -1.16 | inactive: 0.992 | inactive: -0.399
Nc1n[nH]cc1-c1cc(Cl)ccc1Oc1cc(F)c(S(=O)(=O)Nc2cscn2)cc1Cl | inactive: -1.71 | inactive: -1.1 | inactive: 0.762
CN(C)CCCn1c2c(c3ccccc31)CCCCCC2 [Iprindole] | inactive: -0.782 | inactive: 2.27 | inactive: 3.24
CC(C)CCOC(CN1CCCC1)c1ccccc1 (stereo not drawn) | inactive: -0.986 | inactive: -0.438 | inactive: -1.47
CC(C)=CCC/C(C)=C/CC/C(C)=C/CC[C@@](C)(O)CCC1=C(C)C(=O)C(C)=C(C)C1=O [Vatiqui] | inactive: -1.37 | inactive: -0.58 | inactive: 0.175

Structure (SMILES) | TEAD-luciferase reporter activity (compound concentration: 200 nM) | TEAD-luciferase reporter activity (compound concentration: 2 uM) | TEAD-luciferase reporter activity (compound concentration: 10 uM)
COc1ccc([C@@H]2Sc3ccccc3N(CCN(C)C)C(=O)[C@@H]2OC(C)=O)cc1 [diltiazem] |  | inactive: -0.885 | 
COc1ccc([C@@H]2Sc3ccccc3N(CCN(C)C)C(=O)[C@@H]2OC(C)=O)cc1 | inactive: -0.652 |  | inactive: 1.83
COc1ccc([C@@H]2Sc3ccccc3N(CCN(C)C)C(=O)[C@@H]2OC(C)=O)cc1 [Diltiazem] |  | inactive: -0.486 | 
Cc1c(C(C)C)c(=O)n(-c2ccccc2)n1C | inactive: -0.249 | inactive: 2.99 | active: 7.39
CCCOc1ccc([C@H]2CNC(=O)N2c2ccc3[nH]cnc3c2)cc1 | inactive: 0.218 | inactive: -0.296 | inactive: -0.134
O=C(O)c1ccccc1NCCc1ccccc1 [enfenamic acid] | inactive: -0.807 | inactive: -0.653 | active: 5.95
O=C1c2ccccc2CN1C1CCN(CC2CCCCC2)CC1 | inactive: 1.29 |  | inactive: 2.45
O=C(C1CCCC1)N1CCC(C(=O)N2CCC(N3Cc4ccccc4C3=O)CC2)CC1 | inactive: 1.76 |  | inactive: -0.00762
CC(=O)NC[C@H]1CN(c2ccc(N3CCN(C(=O)COC(=O)CN(C)C)CC3)c(F)c2)C(=O)O1 | inactive: -0.608 | inactive: -0.0522 | inactive: -0.233
CCOC(=O)C1CCN(c2nc(N(C)S(=O)(=O)c3ccc4ccccc4c3)ccc2[N+](=O)[O-])CC1 | inactive: -0.453 | inactive: 2.31 | inactive: -0.307
CCCCNC(=O)C(N)CCC (stereo not drawn) | inactive: 0.211 | inactive: 1.21 | inactive: 0.763
CC(=O)N1CCCC2(Cc3ccccc3CN2C(=O)c2ccccc2)C1 (stereo not drawn) | inactive: -0.276 |  | inactive: 2.24
O=C(O)c1ccccc1S [Thiosalicylic acid] | inactive: -0.931 | inactive: 0.262 | inactive: 4.86
O=c1[nH]c2ccccc2c(=O)n1CCCN1CCN(c2ccccc2)CC1 [Pelanserin hydrochloride] | inactive: -1.52 | inactive: -1.58 | inactive: -0.253
CCN(CC)CCOC(=O)c1ccc(N)cc1 | inactive: 2.01 | inactive: -0.567 | inactive: -0.291
COC(=O)C1=C(C)NC(C)=C(C(=O)OCCCCNC[C@H](O)COc2ccccc2)C1c1cccc([N+](=O)[O-])c1 (stereo partly drawn) | inactive: -0.575 | inactive: -2.12 | inactive: -0.898
C=CCc1ccccc1OCC(O)CNC(C)C (stereo not drawn) [Alprenolol hydrochloride] |  | inactive: -0.23 | 
C=CCc1ccccc1OCC(O)CNC(C)C (stereo not drawn) [Alprenolol HCl] | inactive: 0.259 |  | inactive: -1.08
[O-][n+]1cccc(C[C@@H](c2ccc(OC(F)F)c(OC3CC3)c2)c2cnc(C(O)(C(F)(F)F)C(F)(F)F)s2)c1 | inactive: 1.56 | inactive: -1.24 | inactive: -1.57

2 records picked at random from those above, as already listed:
Structure (SMILES) | TEAD-luciferase reporter activity (compound concentration: 200 nM) | TEAD-luciferase reporter activity (compound concentration: 2 uM) | TEAD-luciferase reporter activity (compound concentration: 10 uM)
Cc1c(C(C)C)c(=O)n(-c2ccccc2)n1C | inactive: -0.249 | inactive: 2.99 | active: 7.39
O=C(C1CCCC1)N1CCC(C(=O)N2CCC(N3Cc4ccccc4C3=O)CC2)CC1 | inactive: 1.76 |  | inactive: -0.00762
